Drawing on publication PMC5385504, this text covers binding for 6 molecules.

No constants are given. Whether binding was seen depends on the method and setting. In cells and extracts the contact can be indirect. A result given as binding can be weak or reduced; the word gives no strength. Sequences can lack the tags named with a protein.

Holding throughout (test): co-IP
For experiment [1], the target named is T1, LEF-11^HA (BmNPV LEF-11 with HA tag, from pIZ-LEF-11^HA) (Bombyx mori nucleopolyhedrovirus (BmNPV)) (UniProt O92404).
T1 sequence: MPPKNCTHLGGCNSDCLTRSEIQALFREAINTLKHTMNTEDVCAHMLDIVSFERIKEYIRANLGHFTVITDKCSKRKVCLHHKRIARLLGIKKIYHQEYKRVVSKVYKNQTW

In experiment [2] the target is ATAD3A^FLAG (Bombyx mori ATAD3A with FLAG tag, from pIZ-ATAD3A^FLAG) (Bombyx mori).
For experiment [3], the target named is HSPD1^FLAG (Bombyx mori HSPD1 with FLAG tag, from pIZ-HSPD1^FLAG) (Bombyx mori).

Turning to “ATAD3A^FLAG (Bombyx mori ATAD3A with FLAG tag, from pIZ-ATAD3A^FLAG)”, in experiment [1], the binding result is reported as “binds”.

For the molecule “Chitinase^FLAG (BmNPV Chitinase with FLAG tag, from pIZ-Chitinase^FLAG) (Bombyx mori nucleopolyhedrovirus (BmNPV))”, the binding result in experiment [1] is given as “no binding”.

Turning to “HSPD1^FLAG (Bombyx mori HSPD1 with FLAG tag, from pIZ-HSPD1^FLAG)”, in experiment [1], the binding entry is reported as “binds”.

“PP2A^FLAG (Bombyx mori PP2A with FLAG tag, from pIZ-PP2A^FLAG)”: the binding entry in experiment [1] was “no binding”.

As to “PP5^FLAG (Bombyx mori PP5 with FLAG tag, from pIZ-PP5^FLAG)”, in experiment [1], the binding entry is listed as “no binding”.

B1: LEF-11^HA (BmNPV LEF-11 with HA tag, from pIZ-LEF-11^HA) (protein, UniProt O92404 1-112)
chain: T1 sequence
B1: the binding result in experiment [2] and in experiment [3] was “binds” throughout.
